Assay results taken from PubChem BioAssay AID445 (National Center for Advancing Translational Sciences (NCATS), 2006).
Values joined by “and” are separate entries in the source; they are usually repeats but may differ in a detail not shown here. Equal entries are not always repeated. The list shows a part of the results. The main result of the screen is listed elsewhere. These columns were measured beside it and carry no call. The list favours compounds with an active or inconclusive main result. Potencies come from curve fits of mixed quality, noted in brackets.

Test: IkB Signaling
Conditions: ABC-DLBCL IkBa-CBG/CBR dual luciferase ratio (green luciferase fused to IkBa over red control in OCI-Ly3 lymphoma cells), 4 h
Summary of the method: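 Curves were fitted separately to fusion (green), unfused (red) and ratio luminescence, then classed by r2, magnitude and activity. Cells: OCI-Ly3, 4 h compound plus doxycycline at 37C; 10 uM MG-132 defined full response.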

[1] = measured here: IkB-luc green channel
[2] = measured here: control luc red channel

| Compound | AC50 [1] | AC50 [2] |
| --- | --- | --- |
| [CH3][Hg][Cl] | 0.398 µM [rising, full curve, poor fit] | 1 µM [rising, full curve] |
| C=CCN1CC[C@]23c4c5ccc(O)c4O[C@@H]2/C(=N/NC(=O)c2ccccc2)CC[C@@]3(O)[C@H]1C5 | 2.51 µM [rising, full curve, poor fit] | 1.26 µM [rising, full curve, poor fit] |
| CCCCn1c(=O)c(C(=O)Nc2nc3ccccc3[nH]2)c(O)c2ccccc21 | – | 0.0398 µM [falling, full curve] |
| COC1=C(C)C(=O)c2c(c(COC(N)=O)c3n2C[C@@H]2[C@@H]3N2C)C1=O (stereo partly specified) | 1 µM [rising, partial curve] | 3.98 µM [falling, single point] |
| Cc1cccc(-n2c(/C=C/c3c[nH]c4ccccc34)nc3ccccc3c2=O)c1 | – | 5.01 µM [falling, partial curve] |
| NS(=O)(=O)c1ccc(N=Cc2c(O)n(C3CCCCC3)c(=O)n(C3CCCCC3)c2=O)cc1 | – | 10 µM [falling, partial curve] |
| CSc1ccc(CN2CCN(C(=O)COc3cccc(C)c3)CC2)cc1 | – | 39.8 µM [falling, partial curve] |
| O=C1NC(=S)NC(=O)C1=Cc1cccc2cc3ccccc3cc12 | – | 3.98 µM [falling, single point] |
| CN(C)P1(N(C)C)=Nc2c(c(N)nn2C)C(c2ccccc2)=N1 | – | 39.8 µM [falling, partial curve] |
| [Cd+2].[Cl-].[Cl-] | 0.794 µM [rising, full curve] | – |
| C[C@@H]1O[C@H](O[C@@H]2C=C3CC[C@H]4[C@@H](CC[C@]5(C)[C@@H](c6ccc(=O)oc6)CC[C@]45O)[C@@]3(C)CC2)[C@@H](O)[C@H](O)[C@@H]1O | – | 0.1 µM [falling, full curve] |
| CCOc1ccc(CN(CCc2ccc3c(c2)OCO3)Cc2cc(OC)ccc2O)cc1 | – | 15.8 µM [falling, single point] |
| Cc1cc(OCC(=O)N2CCN(CCc3ccncc3)CC2)ccc1Cl | – | 15.8 µM [falling, partial curve] |
| CSc1ccc(/C=C/c2nc3ccccc3c(=O)n2-c2cccc(Cl)c2C)cc1 | – | 25.1 µM [falling, partial curve] |
| CCOC(=O)C(O)(c1ccc(NC(=O)c2ccco2)c(OC)c1)C(F)(F)F (stereo unspecified) | – | 12.6 µM [falling, partial curve] |
| Cc1cccc(C2=NCC(=O)N(CC(=O)NCc3ccco3)c3sc4c(c32)CCCC4)c1 | – | 20 µM [falling, partial curve] |
| CC(C)[C@@]1(NC(=O)[C@@H]2C[C@H]3c4cccc5[nH]cc(c45)C[C@@H]3N(C)C2)O[C@@]2(O)[C@H]3CCCN3C(=O)[C@H](Cc3ccccc3)N2C1=O | – | 31.6 µM [falling, partial curve] and 20 µM [falling, partial curve, poor fit] |
| Oc1cc(Cl)c(Cl)c(Cl)c1Cl | – | 3.98 µM [falling, full curve] |
| CC(C)Nc1ccc(Nc2ccccc2)cc1 | – | 12.6 µM [falling, full curve, poor fit] |
| COc1ccc(OC)c(C(c2c(O)c3ccccc3oc2=O)c2c(C)n(C)n(-c3ccccc3)c2=O)c1 (stereo unspecified) | – | 1.26 µM [falling, partial curve, poor fit] |
| C1=C(c2c[nH]c3ccccc23)CCNC1 | – | 10 µM [falling, partial curve] |
| O=S1(=O)N(Cc2ccccc2)CCCN1Cc1ccc(F)cc1Cl | – | 39.8 µM [falling, single point] |
| Cc1c(C(=O)c2cccc3ccccc23)c2cccc3c2n1[C@H](CN1CCOCC1)CO3 | 3.98 µM [rising, full curve, poor fit] | – |
| CC[C@@H]1CN2CCc3cc(OC)c(OC)cc3[C@H]2C[C@@H]1C[C@@H]1NCCc2cc(O)c(OC)cc21 | 0.0631 µM [falling, full curve, poor fit] | 0.0501 µM [falling, full curve] |
| CC[C@@]1(O)C(=O)OCc2c1cc1n(c2=O)Cc2cc3ccccc3nc2-1 | 0.794 µM [falling, full curve] | 251 nM [falling, full curve] and 126 nM [falling, full curve] and 31.6 nM [falling, full curve] |
| CN1CCN(C(=O)O[C@@H]2c3nccnc3C(=O)N2c2ccc(Cl)cn2)CC1 | 39.8 µM [rising, single point] | – |
| CCN(CC)Cc1c[nH]c2ccccc12 | – | 3.98 µM [falling, full curve] |

Record cards (already shown):
CN1CCN(C(=O)O[C@@H]2c3nccnc3C(=O)N2c2ccc(Cl)cn2)CC1 is listed as AC50 [1]: 39.8 µM [rising, single point]
[CH3][Hg][Cl] is listed as AC50 [1]: 0.398 µM [rising, full curve, poor fit]; AC50 [2]: 1 µM [rising, full curve]

Remaining list, next part.

| Compound | AC50 [1] | AC50 [2] |
| --- | --- | --- |
| C[C@]1(C(=O)O)[C@@H]2CC[C@@H](O2)[C@@]1(C)C(=O)O | 31.6 µM [rising, partial curve] | 12.6 µM [rising, partial curve] |
| COC(=O)c1c(C)ccc2c(O)c3c(cc12)C(=O)c1c2c(cc(O)c1C3=O)[C@@]1(C)O[C@@](C)(O2)[C@@H](O)[C@H](N(C)C)[C@H]1O | – | 3.16 µM [falling, partial curve] |
| C[C@@]12CC[C@H]3[C@@H](CC[C@]4(O)C[C@H](O)CC[C@@]34C=O)[C@]1(O)CC[C@@H]2C1=CC(=O)OC1 | – | 2.51 µM [falling, full curve, poor fit] |
| CC(=NCCCN1CCOCC1)c1c(O)n(-c2ccccc2C)c(=O)[nH]c1=O | – | 3.16 µM [falling, full curve] |
| O=c1[nH]c(=O)n(C2CCCCC2)c(O)c1C1NCCc2ccccc21 (stereo unspecified) | – | 12.6 µM [falling, partial curve] |
| CNc1ccc2oc(C[C@@H]3O[C@@]4(CC[C@H]3C)O[C@@H]([C@@H](C)C(=O)c3ccc[nH]3)[C@@H](C)C[C@H]4C)nc2c1C(=O)O | 2 µM [rising, partial curve] | 12.6 µM [falling, full curve, poor fit] |
| O=C(Cn1ncc2c3ccccc3n(Cc3ccc(F)cc3)c2c1=O)N1CCC2(CC1)OCCO2 | – | 20 µM [falling, partial curve] |
| Cc1cccc2sc(NC(=O)c3cccn(Cc4ccccc4)c3=O)nc12 | – | 2.51 µM [falling, full curve] |
| Cc1cc(NC(=O)c2cccn(Cc3ccccc3)c2=O)no1 | – | 2 µM [falling, full curve] |
| O=C(CN1C(=O)CN=C(c2ccccc2)c2ccccc21)Nc1cccc(C(F)(F)F)c1 | – | 25.1 µM [falling, partial curve] |
| Nc1c(C(=O)Nc2cccc(Br)c2)sc2nc3c(cc12)N1CCC3CC1 | – | 25.1 µM [falling, single point] |
| CC[C@]1(O)C(=O)OCc2c1cc1n(c2=O)Cc2cc3ccccc3nc2-1 | – | 0.398 µM [falling, full curve] |
| CN(CC1COc2ccccc2O1)c1nc(-c2cccnc2)nc2ccccc12 (stereo unspecified) | – | 20 µM [falling, partial curve] |
| CCC(=NCc1ccc2c(c1)OCO2)c1c(O)n(C2CCCCC2)c(=O)[nH]c1=O | – | 15.8 µM [falling, partial curve] |
| CC(C)(C)OOC(=O)c1ccccc1 | 39.8 µM [rising, partial curve, poor fit] | – |
| CCN(CC)C(=O)c1ccc(NC(=O)CCn2nc(-c3ccc(C)cc3)c3ccccc3c2=O)cc1 | – | 20 µM [falling, partial curve] |
| CCOc1ccc(CN(CCc2ccc3c(c2)OCO3)Cc2cccc(C)c2)cc1 | – | 3.16 µM [falling, partial curve, poor fit] |
| CN1[C@@H]2CC[C@H]1CC(O[C@@H](c1ccccc1)c1ccc(Cl)cc1)C2 (stereo partly specified) | – | 31.6 µM [falling, partial curve] |
| CCN(CC)C(=O)c1ccc(NC(=O)CCn2nc(-c3ccc(Cl)cc3)c3ccccc3c2=O)cc1 | – | 31.6 µM [falling, partial curve] |
| Cc1cccc(C2CC(=O)Oc3c2c(=O)oc2ccccc32)c1 (stereo unspecified) | – | 15.8 µM [falling, partial curve] |
| C[C@@H]1O[C@H](O[C@H]2C[C@@H](O)[C@]3(CO)[C@H]4[C@H](O)C[C@]5(C)[C@@H](C6=CC(=O)OC6)CC[C@@]5(O)[C@H]4CC[C@]3(O)C2)[C@@H](O)[C@H](O)[C@H]1O | – | 0.398 µM [falling, full curve] |
| Cc1nnc(NC(=O)c2cccn(Cc3ccccc3)c2=O)s1 | – | 2 µM [rising, full curve] |
| COc1cc2nc(CN3CC=C(c4ccccc4)CC3)[nH]c(=O)c2cc1OC | – | 0.794 µM [falling, full curve] |
| O=C1NC(=O)[C@]2(Cc3ccccc3N3CCN(c4ccccc4)CC32)C(=O)N1c1ccccc1 (stereo partly specified) | – | 1 µM [falling, partial curve] |
| COc1ccc(NC(=O)CN2C(=O)CN=C(c3ccccc3)c3ccccc32)c(OC)c1 | – | 15.8 µM [falling, single point] |
| C[C@@H]1CC[C@@]2(OC1)O[C@H]1[C@@H](O)[C@H]3[C@@H]4CC[C@H]5C[C@@H](O[C@@H]6O[C@H](CO)[C@H](O[C@@H]7O[C@H](CO)[C@@H](O)[C@H](O[C@@H]8OC[C@@H](O)[C@H](O)[C@H]8O)[C@H]7O[C@@H]7O[C@H](CO)[C@@H](O)[C@H](O[C@@H]8O[C@H](CO)[C@@H](O)[C@H](O)[C@H]8O)[C@H]7O)[C@H](O)[C@H]6O)[C@H](O)C[C@]5(C)[C@H]4CC[C@]3(C)[C@H]1[C@@H]2C | 0.1 µM [rising, full curve, poor fit] | 0.0794 µM [rising, full curve, poor fit] |
